Test [1] addresses T1, proteolipid protein (PLP) (human (endogenous in HOG)) (UniProt P60201).
T1 sequence: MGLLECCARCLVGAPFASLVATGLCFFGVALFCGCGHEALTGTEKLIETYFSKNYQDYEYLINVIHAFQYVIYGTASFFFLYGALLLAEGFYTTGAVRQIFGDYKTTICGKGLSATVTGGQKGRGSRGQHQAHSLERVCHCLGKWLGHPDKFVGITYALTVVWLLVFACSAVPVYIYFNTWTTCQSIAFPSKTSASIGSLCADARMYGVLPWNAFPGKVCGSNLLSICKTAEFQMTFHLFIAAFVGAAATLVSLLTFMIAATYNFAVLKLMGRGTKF
As to the kind of experiment: co-IP; GFP-MAL2/HOG cell lysate (50 mM Tris-HCl pH 6.8, 150 mM NaCl, 1% Triton X-100); immunoprecipitated with monoclonal anti-PLP or polyclonal anti-GFP antibody, 2 h at 4°C, captured on protein A-Sepharose; immunoblot with anti-PLP or anti-GFP; controls were preimmune mouse or rabbit serum and a sample without primary antibody.

Sequences of proteins named here, by UniProt entry; tags and fusion partners are left off.
UniProt Q969L2: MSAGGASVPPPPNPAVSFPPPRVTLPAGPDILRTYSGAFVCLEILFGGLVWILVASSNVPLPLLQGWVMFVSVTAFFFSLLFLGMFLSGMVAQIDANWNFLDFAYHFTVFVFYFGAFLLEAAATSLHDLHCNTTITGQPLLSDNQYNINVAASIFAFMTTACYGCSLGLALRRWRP

Test [2] has as its target GFP-MAL2 (green fluorescent protein fused to the amino-terminal end of MAL2) (UniProt Q969L2). The test is described as above.

These are yes or no findings as the source states them, for the method shown. Binding seen in cells or lysates may run through a third protein. Some entries that bind do so weakly or less than the wild type.

On to “GFP-MAL2 (green fluorescent protein fused to the amino-terminal end of MAL2) (from UniProt Q969L2 1-176)”, for which the binding result in test [1] is recorded as “binds”.

B1: proteolipid protein (PLP) (protein, UniProt P60201 1-277)
chain: MGLLECCARCLVGAPFASLVATGLCFFGVALFCGCGHEALTGTEKLIETYFSKNYQDYEYLINVIHAFQYVIYGTASFFFLYGALLLAEGFYTTGAVRQIFGDYKTTICGKGLSATVTGGQKGRGSRGQHQAHSLERVCHCLGKWLGHPDKFVGITYALTVVWLLVFACSAVPVYIYFNTWTTCQSIAFPSKTSASIGSLCADARMYGVLPWNAFPGKVCGSNLLSICKTAEFQMTFHLFIAAFVGAAATLVSLLTFMIAATYNFAVLKLMGRGTKF
Consider B1, for which the binding result in test [2] was “binds”.
